Some of the results follow.
Assays:
Assay in all cases: log2 fold change, soluble protein after heating vs DMSO (PISA); higher = thermal stabilisation; K562 cells, 10 uM, 30 min; active = over 0.2 and 3.5 SD of the protein, either way, in both replicates (recomputed)
[1] = compound: C1=CC=C(C=C1)[C@H](COC2=CC3=C(C=C2)NC(=O)N3)NC(=O)C4=CC=CN(C4=O)CC5=CC(=C(C=C5)F)F
Method in brief: (§1)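 K562 cells at 2×10^6 cells/mL were exposed to 10 μM compound for 30 min, then aliquots were heated for 3 min across 48°C-58°C, pooled, and extracted in PBS containing 0.5% NP-40 at 4°C. The supernatant after 21,000xg for 90 min was taken as soluble protein and measured by TMTpro 16plex LC-MS/MS with channel sums equalised. Thermal stability is reported relative to control samples, with values from duplicates. Fold changes are given on a log2 scale.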

Amino acid sequences for entries named in this document (tags omitted). A change or cut given only in a name is not applied to a line headed by its entry.
UniProt P34913, whole entry, looked up: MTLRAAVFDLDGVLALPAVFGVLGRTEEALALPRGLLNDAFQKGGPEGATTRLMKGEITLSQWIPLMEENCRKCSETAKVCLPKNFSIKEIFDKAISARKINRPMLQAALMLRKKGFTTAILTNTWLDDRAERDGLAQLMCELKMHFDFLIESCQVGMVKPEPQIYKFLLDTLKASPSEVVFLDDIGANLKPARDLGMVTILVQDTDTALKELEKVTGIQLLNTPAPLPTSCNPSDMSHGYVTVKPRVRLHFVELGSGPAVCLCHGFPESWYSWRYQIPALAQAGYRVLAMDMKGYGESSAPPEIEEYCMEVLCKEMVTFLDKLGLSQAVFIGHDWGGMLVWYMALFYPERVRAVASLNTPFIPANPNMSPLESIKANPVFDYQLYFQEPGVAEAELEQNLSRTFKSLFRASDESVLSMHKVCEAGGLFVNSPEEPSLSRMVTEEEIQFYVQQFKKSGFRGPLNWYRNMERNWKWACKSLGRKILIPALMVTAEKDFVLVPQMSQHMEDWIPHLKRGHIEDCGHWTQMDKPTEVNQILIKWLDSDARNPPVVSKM
UniProt Q7Z309: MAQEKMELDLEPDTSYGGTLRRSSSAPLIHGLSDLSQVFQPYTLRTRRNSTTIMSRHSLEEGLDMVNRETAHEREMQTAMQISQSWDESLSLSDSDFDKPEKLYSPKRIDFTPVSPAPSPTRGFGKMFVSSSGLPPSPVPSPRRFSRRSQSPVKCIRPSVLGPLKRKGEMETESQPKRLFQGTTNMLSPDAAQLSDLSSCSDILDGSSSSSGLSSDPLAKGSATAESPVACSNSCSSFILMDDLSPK
UniProt Q9Y624, whole entry, looked up, stated change not applied: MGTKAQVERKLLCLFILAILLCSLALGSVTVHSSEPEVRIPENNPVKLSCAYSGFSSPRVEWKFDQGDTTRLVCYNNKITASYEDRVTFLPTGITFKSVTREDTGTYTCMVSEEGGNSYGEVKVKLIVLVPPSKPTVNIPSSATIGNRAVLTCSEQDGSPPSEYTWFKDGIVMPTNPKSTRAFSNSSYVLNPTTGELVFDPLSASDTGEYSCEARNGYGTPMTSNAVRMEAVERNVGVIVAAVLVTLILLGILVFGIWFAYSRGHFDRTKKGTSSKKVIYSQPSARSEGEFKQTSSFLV
UniProt Q9Y5Q0: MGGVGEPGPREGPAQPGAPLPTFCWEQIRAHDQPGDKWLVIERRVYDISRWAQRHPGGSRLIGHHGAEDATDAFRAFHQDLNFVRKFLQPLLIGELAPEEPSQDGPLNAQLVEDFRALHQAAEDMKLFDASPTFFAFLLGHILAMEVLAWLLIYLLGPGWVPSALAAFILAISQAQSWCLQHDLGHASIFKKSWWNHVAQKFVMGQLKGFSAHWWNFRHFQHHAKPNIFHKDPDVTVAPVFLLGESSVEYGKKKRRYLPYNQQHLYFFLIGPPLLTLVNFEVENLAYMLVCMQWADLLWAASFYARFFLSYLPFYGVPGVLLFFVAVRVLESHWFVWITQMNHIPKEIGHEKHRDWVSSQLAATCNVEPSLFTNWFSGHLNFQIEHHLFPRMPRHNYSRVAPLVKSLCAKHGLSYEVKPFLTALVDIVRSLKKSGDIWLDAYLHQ
UniProt Q8N128: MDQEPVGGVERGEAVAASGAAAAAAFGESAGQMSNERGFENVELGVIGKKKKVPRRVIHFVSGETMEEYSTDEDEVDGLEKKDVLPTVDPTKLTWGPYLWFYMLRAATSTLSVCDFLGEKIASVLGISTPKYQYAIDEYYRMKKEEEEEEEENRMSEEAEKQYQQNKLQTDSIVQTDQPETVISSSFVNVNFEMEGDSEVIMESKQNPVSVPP
UniProt Q15024, whole entry, looked up: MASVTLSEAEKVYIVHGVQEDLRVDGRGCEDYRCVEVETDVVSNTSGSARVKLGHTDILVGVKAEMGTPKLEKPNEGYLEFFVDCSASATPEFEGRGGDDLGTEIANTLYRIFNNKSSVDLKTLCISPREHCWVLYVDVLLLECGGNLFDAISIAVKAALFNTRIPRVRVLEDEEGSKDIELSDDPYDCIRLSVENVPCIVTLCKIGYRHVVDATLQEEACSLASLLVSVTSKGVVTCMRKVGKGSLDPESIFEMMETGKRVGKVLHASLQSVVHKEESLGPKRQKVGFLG
UniProt O00471: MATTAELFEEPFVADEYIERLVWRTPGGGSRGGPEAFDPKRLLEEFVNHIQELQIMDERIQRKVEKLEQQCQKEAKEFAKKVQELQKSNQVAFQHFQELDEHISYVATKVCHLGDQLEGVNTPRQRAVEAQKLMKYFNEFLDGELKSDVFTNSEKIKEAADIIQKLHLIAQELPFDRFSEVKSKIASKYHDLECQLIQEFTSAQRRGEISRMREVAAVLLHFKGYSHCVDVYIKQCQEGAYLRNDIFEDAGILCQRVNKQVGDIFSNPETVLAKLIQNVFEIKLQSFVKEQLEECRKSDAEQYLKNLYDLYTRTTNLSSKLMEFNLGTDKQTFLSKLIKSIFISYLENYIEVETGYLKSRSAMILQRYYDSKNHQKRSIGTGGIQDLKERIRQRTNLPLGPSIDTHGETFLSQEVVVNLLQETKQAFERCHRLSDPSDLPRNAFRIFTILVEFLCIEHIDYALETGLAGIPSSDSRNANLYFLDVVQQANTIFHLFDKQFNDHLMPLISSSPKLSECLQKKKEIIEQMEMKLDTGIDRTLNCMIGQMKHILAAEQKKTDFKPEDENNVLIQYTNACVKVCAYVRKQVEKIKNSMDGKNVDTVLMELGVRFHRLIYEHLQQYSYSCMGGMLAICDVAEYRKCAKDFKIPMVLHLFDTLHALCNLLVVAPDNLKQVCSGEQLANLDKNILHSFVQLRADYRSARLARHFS
UniProt Q9NRY5: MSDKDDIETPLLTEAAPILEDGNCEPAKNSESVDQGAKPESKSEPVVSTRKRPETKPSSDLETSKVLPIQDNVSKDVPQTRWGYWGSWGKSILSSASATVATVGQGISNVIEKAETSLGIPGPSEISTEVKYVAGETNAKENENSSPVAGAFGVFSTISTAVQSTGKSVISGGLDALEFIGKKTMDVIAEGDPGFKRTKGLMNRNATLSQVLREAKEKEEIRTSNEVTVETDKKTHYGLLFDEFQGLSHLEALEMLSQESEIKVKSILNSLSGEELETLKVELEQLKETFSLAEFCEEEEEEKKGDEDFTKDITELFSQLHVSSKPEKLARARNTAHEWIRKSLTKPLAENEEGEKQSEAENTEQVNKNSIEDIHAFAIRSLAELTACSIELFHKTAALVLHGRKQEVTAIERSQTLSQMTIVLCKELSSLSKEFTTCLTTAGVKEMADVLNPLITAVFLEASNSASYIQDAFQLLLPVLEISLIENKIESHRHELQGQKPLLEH
UniProt Q99504: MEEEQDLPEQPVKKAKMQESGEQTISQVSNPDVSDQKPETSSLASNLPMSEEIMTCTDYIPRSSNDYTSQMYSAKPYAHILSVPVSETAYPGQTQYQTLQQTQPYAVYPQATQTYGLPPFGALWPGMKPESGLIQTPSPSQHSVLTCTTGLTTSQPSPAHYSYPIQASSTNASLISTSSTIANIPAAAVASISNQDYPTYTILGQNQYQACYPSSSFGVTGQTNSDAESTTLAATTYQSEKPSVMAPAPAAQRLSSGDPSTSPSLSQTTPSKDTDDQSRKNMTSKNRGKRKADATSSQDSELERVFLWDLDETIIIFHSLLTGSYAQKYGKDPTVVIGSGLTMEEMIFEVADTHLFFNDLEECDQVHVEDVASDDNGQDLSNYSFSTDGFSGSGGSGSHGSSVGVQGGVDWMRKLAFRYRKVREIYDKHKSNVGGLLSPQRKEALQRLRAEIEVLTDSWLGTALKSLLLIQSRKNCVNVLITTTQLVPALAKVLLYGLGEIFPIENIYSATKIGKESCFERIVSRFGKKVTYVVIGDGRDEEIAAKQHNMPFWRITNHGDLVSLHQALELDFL
UniProt P50548: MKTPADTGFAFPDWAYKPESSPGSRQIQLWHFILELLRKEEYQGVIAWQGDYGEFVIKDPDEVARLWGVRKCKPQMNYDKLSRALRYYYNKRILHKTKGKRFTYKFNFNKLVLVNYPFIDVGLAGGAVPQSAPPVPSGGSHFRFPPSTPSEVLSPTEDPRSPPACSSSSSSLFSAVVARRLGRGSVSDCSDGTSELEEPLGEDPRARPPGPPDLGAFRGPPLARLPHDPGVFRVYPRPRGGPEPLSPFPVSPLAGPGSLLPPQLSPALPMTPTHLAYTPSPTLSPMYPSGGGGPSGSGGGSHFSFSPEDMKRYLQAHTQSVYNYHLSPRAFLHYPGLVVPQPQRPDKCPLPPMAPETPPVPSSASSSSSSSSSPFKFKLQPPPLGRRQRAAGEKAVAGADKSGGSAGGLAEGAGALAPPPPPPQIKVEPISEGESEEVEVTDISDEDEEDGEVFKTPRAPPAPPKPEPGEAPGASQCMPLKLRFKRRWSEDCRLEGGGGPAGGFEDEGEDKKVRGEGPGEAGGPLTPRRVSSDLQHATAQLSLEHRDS
UniProt Q9NSI2: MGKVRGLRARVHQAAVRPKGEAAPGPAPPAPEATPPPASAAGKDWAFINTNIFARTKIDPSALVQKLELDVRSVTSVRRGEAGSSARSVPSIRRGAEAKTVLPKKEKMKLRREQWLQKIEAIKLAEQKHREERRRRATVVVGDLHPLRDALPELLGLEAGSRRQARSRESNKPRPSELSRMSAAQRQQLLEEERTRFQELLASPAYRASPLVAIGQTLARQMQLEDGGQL
UniProt Q86X53: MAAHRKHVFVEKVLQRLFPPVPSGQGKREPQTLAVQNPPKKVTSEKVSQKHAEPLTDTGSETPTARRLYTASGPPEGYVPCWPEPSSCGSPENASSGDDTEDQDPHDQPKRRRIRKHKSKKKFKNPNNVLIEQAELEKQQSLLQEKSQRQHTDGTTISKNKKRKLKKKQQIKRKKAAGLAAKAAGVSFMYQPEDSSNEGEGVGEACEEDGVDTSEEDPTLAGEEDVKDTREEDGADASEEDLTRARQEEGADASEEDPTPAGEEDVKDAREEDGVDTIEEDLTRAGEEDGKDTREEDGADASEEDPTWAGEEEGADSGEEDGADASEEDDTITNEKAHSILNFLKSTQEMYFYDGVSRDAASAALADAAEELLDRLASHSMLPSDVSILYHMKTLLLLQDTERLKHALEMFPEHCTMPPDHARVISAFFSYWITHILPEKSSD
UniProt Q5T8I3: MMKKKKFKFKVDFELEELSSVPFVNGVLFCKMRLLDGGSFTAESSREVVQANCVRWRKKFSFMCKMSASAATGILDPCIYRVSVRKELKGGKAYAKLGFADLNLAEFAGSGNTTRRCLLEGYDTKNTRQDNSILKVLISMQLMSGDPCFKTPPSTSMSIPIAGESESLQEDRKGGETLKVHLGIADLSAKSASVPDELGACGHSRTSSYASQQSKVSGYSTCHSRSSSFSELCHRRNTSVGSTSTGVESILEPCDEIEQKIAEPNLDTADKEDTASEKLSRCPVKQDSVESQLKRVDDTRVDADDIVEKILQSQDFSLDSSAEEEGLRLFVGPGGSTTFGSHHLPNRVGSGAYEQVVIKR

[2] = compound: CC1=C(SC2=C1C(=N[C@H](C3=NN=C(N32)C)CC(=O)N)C4=CC=C(C=C4)Cl)C
Method in brief: as §1

[3] = compound: CC1=C2C(=CC=C1)N=C(N(C2=O)C3=CC=CC=C3C)CN4C=NC5=C(N=CN=C54)N
Method in brief: as §1

[4] = compound: Cc1sc2c(c1C)C(c1ccc(Cl)cc1)=N[C@@H](CC(=O)OC(C)(C)C)c1nnc(C)n1-2
Method in brief: as §1

[5] = compound: c1ccc([C@@H]2C[C@H]2NC2CCNCC2)cc1
Method in brief: as §1

Measured: log2 fold change

EPHX2 (UniProt P34913)
inactive: [1] -0.015 | [2] 0.091 | [3] 0.052 | [4] 0.143 | [5] -0.002

FAM122B isoform 3 (UniProt Q7Z309)
inactive: [1] 0.001 | [2] 0.081 | [3] 0.107 | [4] 0.03 | [5] -0.01

F11R (UniProt Q9Y624)
inactive: [1] 0.006 | [2] -0.004 | [3] 0.014 | [4] 0.002 | [5] -0.018

FADS3 (UniProt Q9Y5Q0)
inactive: [1] 0.027 | [2] 0.023 | [3] 0.026 | [4] 0.025 | [5] -0.007

FAM177A1 isoform 2 (UniProt Q8N128)
inactive: [1] -0.073 | [2] 0.047 | [3] 0.17 | [4] -0.002 | [5] 0.028

EXOSC7 (UniProt Q15024)
inactive: [1] 0.051 | [2] -0.012 | [3] 0.018 | [4] 0.013 | [5] 0.053

EXOC5 (UniProt O00471)
inactive: [1] -0.069 | [2] -0.006 | [3] 0.07 | [4] 0.066 | [5] -0.018

2 entries drawn at random from the list so far:
FADS3 (UniProt Q9Y5Q0)
inactive: [1] 0.027 | [2] 0.023 | [3] 0.026 | [4] 0.025 | [5] -0.007

EXOC5 (UniProt O00471)
inactive: [1] -0.069 | [2] -0.006 | [3] 0.07 | [4] 0.066 | [5] -0.018

(continued)

FAM114A2 (UniProt Q9NRY5)
inactive: [1] -0.046 | [2] 0.047 | [3] 0.018 | [4] 0.033 | [5] 0.006

EYA3 (UniProt Q99504)
inactive: [2] -0.052 | [3] 0.009 | [4] -0.245 | [5] -0.025

ERF (UniProt P50548)
inactive: [4] -0.515

FAM207A (UniProt Q9NSI2)
inactive: [1] 0.107 | [3] 0.001 | [4] 0.021

ERICH1 (UniProt Q86X53)
inactive: [4] 0.203

FAM102B (UniProt Q5T8I3)
inactive: [3] -0.04

FADS1 (UniProt F5GYH4)
inactive: [1] -0.216 | [3] -0.02 | [4] -0.036
